Article PMC6440935, “Characterization and phase I study of CLR457, an orally bioavailable pan-class I PI3-kinase inhibitor” (Investigational New Drugs, 2018)

Tested on: advanced solid tumors with PI3K pathway activation
Experiment: First-in-human phase I study: efficacy (RECIST v1.1)
Format: in vivo
Description: Efficacy assessments including overall response rate (ORR) and disease control rate (DCR) were analyzed as per RECIST v1.1 by local investigator interpretation based on interval imaging every 2 cycles.

## C[C@H]1OC(=O)N(c2cc(-c3cnc(N)nc3C(F)(F)F)nc(N3CCOCC3)n2)[C@H]1CO [CLR457]
5 mg, N = 2
  Best overall response: Not evaluable: 0 n (%)
10 mg, N = 3
  Best overall response: Not evaluable: 0 n (%)
20 mg, N = 4
  Best overall response: Not evaluable: 0 n (%)
40 mg, N = 5
  Best overall response: Not evaluable: 0 n (%)
70 mg, N = 6
  Best overall response: Not evaluable: 1 (16.7) n (%)
100mg, N = 11
  Best overall response: Not evaluable: 3 (27.3) n (%)
All Patients, N = 31
  Best overall response: Not evaluable: 4 (12.9) n (%)
